Laboratory results published in patent US20060083742A1.
These are yes or no findings as the source states them, for the method shown. In cells and extracts the contact can be indirect. Some entries that bind do so weakly or less than the wild type.

Target: GFP-tagged Bcl-2 (human) (UniProt P10415)
Experiment: co-immunoprecipitation from co-transfected Cos-1 cells (Y13-259 IP, anti-GFP blot)

binding: binds
Substance: HA-tagged K-Ras12V (from UniProt P01116 1-185)
